Test results published in PubChem BioAssay AID1471 (National Center for Advancing Translational Sciences (NCATS), 2008).
Where “and” joins values, the source holds several entries; their conditions need not be identical. Equal values may be shown once. The campaign covered roughly 230,000 compounds. About 310 (0.13%) were called active. The inconclusive results got no clear call from the source; some entries with a clear call stand among them for comparison. The call rests on the fitted dose curve; in most records, active means well fitted activation curve with a large enough effect; inconclusive means small, poorly fitted or top-dose-only effect; inactive means no such curve, though single readings can be large or run the other way. A potency beside an inconclusive call is a rough fit, not a confirmed value. Residues, ends and D or L forms follow the SMILES beside them.
Potency means the concentration at half of the fitted maximal effect.

Test: qHTS Multiplex Assay to Identify Dual Action Probes in a Cell Model of Huntington: Cytoprotection (ATP); further: nearly all actives have a fitted effect of over 45% in size;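 on cytoprotection (ATP increase): toxic huntingtin expression switched on by the ecdysone agonist tebufenozide; % of control where 0% means no effect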
Settings: PC12 HTT-Q103 induced, ATP luminescence, 40 h; cytoprotection (ATP increase): at 56.4 µM (top of the series) unless noted
Outline: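 PC12 cells stably carrying ecdysone-inducible Htt exon 1 (Q103)–GFP were induced with 100 nM tebufenozide (final) alongside library compounds in a dose series. Cytoprotection was scored as retained ATP by ATPlite luminescence.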
For `CN(CCc1ccccn1)C(=O)CCNC(=O)Cn1cnc2ccccc2c1=O`, the Potency was inconclusive: 3.16 µM [activator, single point].
With `CCCCC/C=C\C/C=C\C/C=C\C/C=C\CCCC(=O)C(F)(F)F` the Potency was inconclusive: 31.6 µM [activator, single point].
For `COC(=O)COc1ccc(NC(=O)C2CCCO2)cc1` (stereo unspecified), the cytoprotection (ATP increase) was inactive: -17.2% [at 0.074 µM].
With `Cn1c(=O)c2c(nc(NCC3CCCO3)n2Cc2cccc(Br)c2)n(C)c1=O` (stereo unspecified) the Potency was “inactive”.
In the case of `COC(=O)CNC(c1ccccc1)c1cc(Br)ccc1NC(C)=O` (stereo unspecified), the Potency is reported as active: 3.16 µM.
In the case of `CCn1cnc2sc(C(=O)N3CCN(c4ccc(OC)cc4)CC3)c(C)c2c1=O`, the Potency is reported as inconclusive: 1.26 µM [activator, single point].
For `COc1cc(/C=C/C(=O)c2ccc(NS(=O)(=O)c3ccc(C)cc3)cc2)cc(OC)c1O`, the cytoprotection (ATP increase) was inactive: 4.8% [at 10 µM].
In the case of `CC(O)c1nc2ccc(Cc3ccc4nc(C(C)O)[nH]c4c3)cc2[nH]1` (stereo unspecified), the Potency is reported as inconclusive: 5.62 µM [activator, single point].
For `O=C1OCCC1Sc1nnc(-c2ccc(O)cc2)o1` (stereo unspecified), the Potency was inconclusive: 15.8 µM [activator, partial curve, poor fit].
For `CNS(=O)(=O)c1cccc(C(=O)OCC(=O)N(CCC#N)c2ccccc2)c1`, the cytoprotection (ATP increase) was inactive: 15.9% [at 10 µM].
With `COc1ccc(-c2cnnc(N/N=C/c3ccc(C)o3)n2)cc1` the Potency was inconclusive: 3.55 µM [activator, single point].
In the case of `Cc1cc(-c2nnc(CCC(=O)NC(C)c3cccc4ccccc34)o2)no1` (stereo unspecified), the Potency is reported as inconclusive: 5.62 µM [activator, single point].
With `O=C(NCc1cccnc1)c1ccc(COc2ccccc2Cl)cc1` the Potency was inconclusive: 5.62 µM [activator, single point].
With `C=COCCNC(=O)Nc1ccc(Cl)c(Cl)c1` the cytoprotection (ATP increase) was inactive: -12.6% [at 10 µM].
With `CCOc1ccc(C(=O)/C=C/c2cc(OC)c(OC)c(OC)c2)cc1` the Potency was inconclusive: 35.5 µM [activator, single point].
With `COc1ccc(C)cc1NC(=O)c1ccc(S(=O)(=O)N2CCOCC2)cc1` the Potency was “inactive”.
For `Oc1ccc(/C=N/N2CCOCC2)c(O)c1O`, the Potency was “inactive”.
With `CN(C)CCCN1c2ccccc2Sc2ccc(Cl)cc21` the Potency was inconclusive: 0.0025 µM [activator, single point].
With `C=CC(=O)N1C(=O)c2ccccc2S1(=O)=O` the Potency was inconclusive: 6.31 µM [activator, partial curve].
In the case of `COc1ccccc1N1CCN(CCCCN2C(=O)CCC2=O)CC1`, the Potency is reported as inconclusive: 5.62 µM [activator, single point].
In the case of `O=C1CC(Cc2ccc(Cl)cc2)C(=O)N1c1ccncc1` (stereo unspecified), the Potency is reported as inconclusive: 3.16 µM [activator, single point].
With `O=C1C(=Cc2ccco2)C(=O)c2ccccc21` the Potency was inconclusive: 3.98 µM [activator, single point].
For `CSc1nc2ncc(C#N)cn2n1`, the Potency was inconclusive: 0.447 µM [activator, partial curve].
For `Cn1c(=O)c(=O)n(C)c2cc(S(=O)(=O)N3CCN(C4CCCCC4)CC3)ccc21`, the Potency was inconclusive: 1.26 µM [activator, single point].
With `COc1cc(-c2ccc(-[n+]3nc(-c4ccccc4)nn3-c3ccc([N+](=O)[O-])cc3)c(OC)c2)ccc1-[n+]1nc(-c2ccccc2)nn1-c1ccc([N+](=O)[O-])cc1` the Potency was “inactive”.
In the case of `Cc1ccc(-n2c(=S)[nH]c3[nH]ncc3c2=O)cc1`, the Potency is reported as inconclusive: 20 µM [activator, single point].
With `Cn1cnnc1SCC(=O)Nc1ccc2nc(SCc3cccc4ccccc34)sc2c1` the cytoprotection (ATP increase) was inactive: 13.7% [at 10 µM].
In the case of `O=C(C1CCCN1C(=O)c1cccs1)N1CCc2ccccc21` (stereo unspecified), the Potency is reported as “inactive”.
For `CC(=O)NCc1ccc(C(=O)CCl)s1`, the Potency was “inactive”.
For `Nc1nc(SCC(=O)N2CCc3ccccc32)[nH]c(=O)c1-c1ccccc1`, the Potency was inconclusive: 35.5 µM [activator, single point].
In the case of `CC(=O)c1ccc2c(c1)C1C=CCC1C(C(=O)O)N2` (stereo unspecified), the cytoprotection (ATP increase) is reported as inactive: -37.7% [at 10 µM].
With `Cc1nc2ccccc2c2nc(NC(=O)Cc3ccccc3)nn12` the Potency was inconclusive: 5.62 µM [activator, single point].
In the case of `CCCCOC(=O)c1ccc(NC(=S)NC(=O)c2c(Br)c(C)nn2C)cc1`, the cytoprotection (ATP increase) is reported as inactive: 3.1% [at 10 µM].
In the case of `O=C(CCc1ccccc1)NNC(=O)c1cccc(F)c1`, the Potency is reported as inconclusive: 5.01 µM [activator, single point].
In the case of `Cc1ccc2c(c1)C(=C(C#N)C#N)C(=O)N2CCN1CCCCC1`, the cytoprotection (ATP increase) is reported as inactive: 33.5% [at 10 µM].
With `O=C(Nc1cnccn1)Nc1cccc(Cl)c1Cl` the Potency was inconclusive: 15.8 µM [activator, single point].
For `CCOc1ccc(NC(=O)COc2ccc(OC)cc2)cc1`, the Potency was inconclusive: 31.6 µM [activator, single point].
With `COc1cccc(-n2c(COc3ccc(C)cc3)nnc2SCC(=O)O)c1` the cytoprotection (ATP increase) was inactive: -11.2% [at 10 µM].
In the case of `O=C(CSc1nccc(=O)[nH]1)N1CCN(c2ccccc2)CC1`, the Potency is reported as inconclusive: 0.0063 µM [activator, full curve, poor fit].
With `CCc1ccc(C2CC(=O)NC(SCC(=O)OC(C)C)=C2C#N)cc1` (stereo unspecified) the Potency was “inactive”.
With `CN1CCN([C@@H](c2ccccc2)c2ccc(Cl)cc2)CC1` the Potency was inconclusive: 3.55 µM [activator, partial curve, poor fit].
In the case of `COC(=O)N1CCN(c2ccc(C)c(C)c2)CC1`, the Potency is reported as inconclusive: 0.794 µM [activator, single point].
In the case of `COc1ccc2[nH]cc(CCNc3ncncc3-c3ccccc3CN(C)C)c2c1`, the Potency is reported as inconclusive: 25.1 µM [activator, single point].
In the case of `CSc1nsc2nc(=O)c(/C=C3\C(C)=Nc4ccccc43)c(N)n12`, the Potency is reported as inconclusive: 0.447 µM [activator, full curve, poor fit].
In the case of `O=C(O)CN=C1NC2(CCCCC2)Cc2ccccc21`, the Potency is reported as inconclusive: 3.16 µM [activator, single point].
With `CN(C)n1cccc1/C=C(\C#N)S(=O)(=O)c1ccc(Cl)cc1` the cytoprotection (ATP increase) was inactive: 35.6% [at 10 µM].
For `Cc1nn(-c2nc3ccccc3s2)c(C)c1Oc1ccccc1O`, the cytoprotection (ATP increase) was inactive: 20.9% [at 10 µM].
In the case of `CC(C)CO/N=C1/C[C@@H](O)[C@@H](O)[C@@H]2[C@@H]3C(=O)N([C@@H](C)c4ccccc4)C(=O)[C@H]3CC[C@H]12`, the Potency is reported as inconclusive: 0.141 µM [activator, full curve, poor fit].
In the case of `O=Cc1sc(Nc2ccccc2)nc1Cl`, the Potency is reported as inconclusive: 35.5 µM [activator, single point].
For `COCCNC(=S)N1CCN(C(=O)C(=O)Nc2ccc(C(=O)OC)cc2)CC1`, the Potency was inconclusive: 0.891 µM [activator, partial curve].
For `COC(=O)C(Cc1ccccc1)NC(=O)C(N)CC(=O)O` (stereo not drawn) (H-Asp-Phe-OMe; configuration not given here), the Potency was inconclusive: 0.282 µM [activator, partial curve].
With `COc1ccccc1OCC(=O)Nc1ccc(-c2nnc(-c3ccco3)o2)cc1` the Potency was inconclusive: 0.891 µM [activator, single point].
For `Cc1ccc(/C=N/NC(=O)Cc2cccs2)o1`, the cytoprotection (ATP increase) was inactive: 12.7% [at 10 µM].
For `CCCCN(C(=O)Cc1cccs1)c1nnc(-c2cccnc2)s1`, the cytoprotection (ATP increase) was inactive: 4.76% [at 10 µM].
For `COC(=O)CC1C2(C)CC34OC5(C)O[C@@]6(C7/C(=C(/OC)C(C)C)C(=O)OC(c8ccoc8)[C@@]7(C)C(OC(=O)C(C)C)C(OC)[C@]6(O5)[C@@]13C)C(OC)[C@]4(OC)C2OC(C)=O` (stereo partly specified), the Potency was inconclusive: 35.5 µM [activator, single point].
In the case of `CCOC(=O)C1=C(SCC)c2cc3c(n2C1=O)CCCC3`, the cytoprotection (ATP increase) is reported as inactive: 4.43% [at 10 µM].
For `CSCCC1NC(=O)N(CC(=O)Nc2ccc(Br)cc2Br)C1=O` (stereo unspecified), the cytoprotection (ATP increase) was inactive: 18.4% [at 10 µM].
For `CCc1n(CC(O)COCc2ccccc2)c2ccccc2[n+]1C` (stereo unspecified), the Potency was inconclusive: 2.82 µM [activator, single point].
In the case of `CC[C@H](C)[C@@H](NC(=O)O[C@H]1C(=O)c2cc(OC)ccc2O[C@@H]1c1ccc(OC)c(Br)c1)C(=O)OC`, the Potency is reported as inconclusive: 5.62 µM [activator, single point].
In the case of `CC(C)CN1CCCC2(CCN(C(=O)c3cnccn3)CC2)C1`, the Potency is reported as “inactive”.
In the case of `CCOC(=O)c1sc(=S)n(CC)c1NC(=O)c1ccccc1C`, the Potency is reported as inconclusive: 0.794 µM [activator, partial curve].
With `O=C(Nc1cc(C(F)(F)F)ccc1N1CCOCC1)C1Cc2ccccc2CN1C(=O)c1ccco1` (stereo unspecified) the cytoprotection (ATP increase) was inactive: 2.59% [at 10 µM].
In the case of `N[C@H](C(=O)N[C@@H]1C(=O)N2C(C(=O)O)=C(Cl)CS[C@@H]12)c1ccccc1`, the Potency is reported as inconclusive: 112 nM [activator, full curve, poor fit] and inconclusive: 56.2 nM [activator, full curve, poor fit].
For `CC1CCCC(C(=O)O)N1C(=O)CCSSCCC(=O)N1C(C)CCCC1C(=O)O` (stereo unspecified), the Potency was inconclusive: 3.16 µM [activator, single point].
With `CC(=O)Nc1ccc(S(=O)(=O)NCC2CCC(C(=O)NCc3ccccc3)CC2)cc1` (stereo unspecified) the Potency was inconclusive: 0.141 µM [activator, full curve, poor fit].
With `COc1ncc2ncc(=O)n(CCC#N)c2n1` the Potency was inconclusive: 12.6 µM [activator, single point].
